# PubChem BioAssay AID1508597 – Cure First, 2020
# Assay: 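Survival screen with siRNA in ovarian cancer cells derived from patients, with or without rucaparib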 (primary screen)
# Cells: human ovarian carcinoma lines grown from tumours: OCI-P5x (papillary serous) and OCI-C5x (clear cell)
# Reagent: siRNA pool against human genes, 1.25 pmol siRNA per well
# Timing: 72 h or 96 h, depending on the cell culture
# Conditions: rucaparib 20 µM (about IC30) or vehicle, present until read-out
# Rucaparib or vehicle: Vehicle
# Cell line: OCI-C5x (clear cell)
# Measurement: 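Luminescent ATP-based viability assay read 72 or 96 h after transfection, depending on culture, given as normalised percent viability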
# Scale: viability, normalised: higher = more viable cells remaining
# Rule for the call: 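Active when normalised viability falls below 80 percent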
# Calls: active = viability under 80%; inactive = viability 80% or more
# This is an unselected part of the about 2,100 reagents, under one of the conditions tested. 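Calls flag viability under 80% in either arm, not effects specific to rucaparib; the reference for percent is not stated.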 A number with no mark means an inactive call. A reagent listed more than once was tested more than once; the source does not tell the runs apart. Reagent sequences are not shown. Not stated in the record: the 100% reference.
gene,technical replicate,"viability, normalised (%)"
MCCC1,1,83.6
MCCC1,2,68.8 (active)
MCCC1,3,71.4 (active)
PRMT1,1,74.8 (active)
PRMT1,2,66.3 (active)
PRMT1,3,64.7 (active)
GMEB2,1,58.4 (active)
GMEB2,2,63.4 (active)
GMEB2,3,68.9 (active)
RCOR2,1,50 (active)
RCOR2,2,51.6 (active)
RCOR2,3,52.2 (active)
DNAJC1,1,45.8 (active)
DNAJC1,2,44.3 (active)
DNAJC1,3,37.5 (active)
NBN,1,38.4 (active)
NBN,1,47.2 (active)
NBN,2,50.1 (active)
NBN,2,51.3 (active)
NBN,3,44.3 (active)
NBN,3,37.2 (active)
STK31,1,75.2 (active)
STK31,1,63.2 (active)
STK31,2,56.2 (active)
STK31,2,73.5 (active)
STK31,3,50.1 (active)
STK31,3,89.6
PRKD1,1,54.4 (active)
PRKD1,2,64.6 (active)
PRKD1,3,47.6 (active)
EP300,1,34.5 (active)
EP300,1,31.7 (active)
EP300,2,49.3 (active)
EP300,2,35.9 (active)
EP300,3,29.5 (active)
EP300,3,52 (active)
PDE10A,1,49 (active)
PDE10A,2,31.6 (active)
PDE10A,3,35.3 (active)
APEX2,1,47.1 (active)
APEX2,2,38.1 (active)
APEX2,3,44.8 (active)
PMAIP1,1,51.2 (active)
PMAIP1,2,39.4 (active)
PMAIP1,3,44.4 (active)
CHRAC1,1,41.7 (active)
CHRAC1,2,53.6 (active)
CHRAC1,3,57.2 (active)
RNF20,1,59.1 (active)
RNF20,2,48.8 (active)
RNF20,3,58.8 (active)
PLCG2,1,51.3 (active)
PLCG2,2,57.7 (active)
PLCG2,3,58.8 (active)
UVRAG,1,60.8 (active)
UVRAG,2,59.8 (active)
UVRAG,3,62.3 (active)

Sorted by “viability, normalised (%)” (highest first): 8 of the entries above.
gene,technical replicate,"viability, normalised (%)"
UVRAG,1,60.8 (active)
RNF20,1,59.1 (active)
RNF20,3,58.8 (active)
PLCG2,3,58.8 (active)
PLCG2,2,57.7 (active)
CHRAC1,3,57.2 (active)
PLCG2,1,51.3 (active)
RNF20,2,48.8 (active)
